In PMC13247160:
These are yes or no findings as the source states them, for the method shown. In cells and extracts the contact can be indirect. Some entries that bind do so weakly or less than the wild type. Blank lines part the entries; values can stand above or below the substance they belong to.

Chains of the proteins cited; added tags and fusions are not shown. Lines headed by an entry give the natural chain unless they say otherwise; changes in a name come on top. Residues count along the entry.
UniProt Q92905: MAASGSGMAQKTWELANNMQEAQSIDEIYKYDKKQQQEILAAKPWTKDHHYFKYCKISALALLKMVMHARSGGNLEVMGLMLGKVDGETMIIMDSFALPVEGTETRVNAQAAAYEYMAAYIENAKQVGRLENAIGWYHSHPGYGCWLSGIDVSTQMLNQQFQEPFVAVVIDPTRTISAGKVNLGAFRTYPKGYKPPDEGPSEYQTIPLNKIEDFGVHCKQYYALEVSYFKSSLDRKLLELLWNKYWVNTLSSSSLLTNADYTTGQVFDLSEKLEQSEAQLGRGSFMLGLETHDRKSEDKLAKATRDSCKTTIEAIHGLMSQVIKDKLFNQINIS
MPN enzymatic domain of JAB1: residues 55-192 of Q92905
UniProt Q13620: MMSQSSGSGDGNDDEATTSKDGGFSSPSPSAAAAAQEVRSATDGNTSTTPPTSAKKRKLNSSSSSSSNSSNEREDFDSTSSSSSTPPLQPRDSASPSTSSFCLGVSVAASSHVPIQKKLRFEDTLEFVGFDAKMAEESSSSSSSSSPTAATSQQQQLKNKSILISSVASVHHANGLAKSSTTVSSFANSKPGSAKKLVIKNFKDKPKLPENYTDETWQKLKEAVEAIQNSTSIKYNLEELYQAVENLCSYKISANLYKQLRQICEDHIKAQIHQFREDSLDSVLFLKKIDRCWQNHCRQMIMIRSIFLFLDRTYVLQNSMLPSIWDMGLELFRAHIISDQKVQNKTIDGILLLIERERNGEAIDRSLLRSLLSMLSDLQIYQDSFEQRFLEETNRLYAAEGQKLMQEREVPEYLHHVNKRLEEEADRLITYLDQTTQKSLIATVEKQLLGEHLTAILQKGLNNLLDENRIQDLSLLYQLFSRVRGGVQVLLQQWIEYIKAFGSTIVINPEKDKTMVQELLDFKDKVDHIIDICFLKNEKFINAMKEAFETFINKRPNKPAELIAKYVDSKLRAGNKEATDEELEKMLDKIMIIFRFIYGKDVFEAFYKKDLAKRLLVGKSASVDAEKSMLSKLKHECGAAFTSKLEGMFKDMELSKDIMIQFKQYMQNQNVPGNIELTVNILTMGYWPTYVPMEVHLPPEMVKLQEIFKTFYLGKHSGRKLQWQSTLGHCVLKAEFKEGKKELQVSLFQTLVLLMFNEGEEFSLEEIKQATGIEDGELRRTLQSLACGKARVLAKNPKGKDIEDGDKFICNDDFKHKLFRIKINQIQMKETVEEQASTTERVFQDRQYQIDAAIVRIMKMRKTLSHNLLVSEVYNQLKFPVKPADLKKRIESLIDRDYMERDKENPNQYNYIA

Experiments:
[1] = target: C-Jun activation domain-binding protein-1 (JAB1), FLAG-tagged (UniProt Q92905); assay: co-IP; elution fractions of the FLAG-JAB1 immunopurification from MDA-MB-231 cells, western blotting
[2] = target: MPN enzymatic domain of JAB1 (UniProt Q92905); assay: pull-down; GST fusion protein purified on Glutathione-Sepharose 4B beads mixed with in vitro transcription/translation products (rabbit reticulocyte lysate, TNT system); western blotting; only the target purified
[3] = target: CUL4B (GST pull-down experiments) (UniProt Q13620); assay: as above

binding [1]: binds
Substance: CUL4B (Cullin 4B; endogenous, MDA-MB-231) (from UniProt Q13620 1-913)

binding [2]: binds
Substance: CUL4B (GST pull-down experiments) (from UniProt Q13620 1-913)

binding [3]: binds
Substance: JAB1 (GST pull-down experiments) (from UniProt Q92905 1-334)
